PubChem BioAssay AID1224826 | NIAID | 2016

Assay: 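Regulators of Tlr4 signalling leading to Tnf-alpha expression in macrophages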 (primary screen)
Cell system: RAW264.7 G9 macrophages from mouse bearing reporters for p65 (GFP) and the Tnf promoter (mCherry)
Knock-down reagent: siRNA pool against mouse genes, 100 nM
Duration: 16 h of LPS stimulation, after 2 days of siRNA transfection
Challenge: bacterial lipopolysaccharide (Salmonella minnesota R595), 10 ng/ml
Measured: 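Imaged Tnf reporter mCherry in nuclei, minus background, normalised per plate to the median and expressed as robust z-scores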
Scale: Tnf reporter robust z-score: higher = stronger Tnf promoter reporter signal after LPS
Hit rule: 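Called active when robust z-score is at most -1.3, matching the median of the Tlr4 knock-down control, or over 3; control wells and wells with under 50 cells never active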
Meaning of the calls: active = Tnf reporter clearly lowered or raised; inactive = no clear change in Tnf reporter
The whole screen tested about 17,000 reagents; this is an unselected part. About 1,110 of all reagents (6.6%) were called active. 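Active means lowered or raised reporter signal; replicate intensities are raw and not normalised per plate.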 Not all columns of the deposit are shown.

Siah1b (siah E3 ubiquitin protein ligase 1B) [SID315469232] — Tnf reporter robust z-score: 0.29; fewer than 50 cells in well: enough cells in well; activity call: inactive
Dcaf10 (DDB1 and CUL4 associated factor 10) [SID315479613] — Tnf reporter robust z-score: -1.07; fewer than 50 cells in well: enough cells in well; activity call: inactive
Uhrf1 (ubiquitin-like, containing PHD and RING finger domains, 1) [SID315468217] — Tnf reporter robust z-score: -0.13; fewer than 50 cells in well: enough cells in well; activity call: inactive
B230206H07Rik (RIKEN cDNA B230206H07 gene) [SID315481411] — Tnf reporter robust z-score: -0.35; fewer than 50 cells in well: enough cells in well; activity call: inactive
Rigi (RNA sensor RIG-I) [SID315478757] — Tnf reporter robust z-score: -0.11; fewer than 50 cells in well: enough cells in well; activity call: inactive
Rab7b (RAB7B, member RAS oncogene family) [SID315478499] — Tnf reporter robust z-score: 1.7; fewer than 50 cells in well: enough cells in well; activity call: inactive
Atp6v0a2 (ATPase, H+ transporting, lysosomal V0 subunit A2) [SID315469730] — Tnf reporter robust z-score: -0.22; fewer than 50 cells in well: enough cells in well; activity call: inactive
Banf1 (BAF nuclear assembly factor 1) [SID315470185] — Tnf reporter robust z-score: -0.23; fewer than 50 cells in well: enough cells in well; activity call: inactive
Nav3 (neuron navigator 3) [SID315480735] — fewer than 50 cells in well: fewer than 50 cells per well; well left out of calls; activity call: inactive
Baiap2l2 (BAI1-associated protein 2-like 2) [SID315477484] — Tnf reporter robust z-score: -0.56; fewer than 50 cells in well: enough cells in well; activity call: inactive
Vmn1r71 (vomeronasal 1 receptor 71) [SID315479917] — Tnf reporter robust z-score: 0.38; fewer than 50 cells in well: enough cells in well; activity call: inactive
Ncapd2 (non-SMC condensin I complex, subunit D2) [SID315473497] — fewer than 50 cells in well: fewer than 50 cells per well; well left out of calls; activity call: inactive
Lbh (limb-bud and heart) [SID315475519] — Tnf reporter robust z-score: 2.06; fewer than 50 cells in well: enough cells in well; activity call: inactive
Adipor1 (adiponectin receptor 1) [SID315474603] — Tnf reporter robust z-score: 1.25; fewer than 50 cells in well: enough cells in well; activity call: inactive
Pex11b (peroxisomal biogenesis factor 11 beta) [SID315468472] — Tnf reporter robust z-score: -0.15; fewer than 50 cells in well: enough cells in well; activity call: inactive
Klk6 (kallikrein related-peptidase 6) [SID315468725] — Tnf reporter robust z-score: 0.37; fewer than 50 cells in well: enough cells in well; activity call: inactive
Nrn1l (neuritin 1-like) [SID315479187] — Tnf reporter robust z-score: -1.61; fewer than 50 cells in well: enough cells in well; activity call: active
Krt6a (keratin 6A) [SID315467699] — Tnf reporter robust z-score: -1.08; fewer than 50 cells in well: enough cells in well; activity call: inactive
Krtap19-2 (keratin associated protein 19-2) [SID315477183] — Tnf reporter robust z-score: 0.12; fewer than 50 cells in well: enough cells in well; activity call: inactive
Prepl (prolyl endopeptidase-like) [SID315477823] — Tnf reporter robust z-score: -0.2; fewer than 50 cells in well: enough cells in well; activity call: inactive
Cln3 (CLN3 lysosomal/endosomal transmembrane protein, battenin) [SID315466002] — Tnf reporter robust z-score: 0.1; fewer than 50 cells in well: enough cells in well; activity call: inactive

A run of entries of the results above, as a working copy:
Banf1 (BAF nuclear assembly factor 1) [SID315470185] — Tnf reporter robust z-score: -0.23; fewer than 50 cells in well: enough cells in well; activity call: inactive
Nav3 (neuron navigator 3) [SID315480735] — fewer than 50 cells in well: fewer than 50 cells per well; well left out of calls; activity call: inactive
Baiap2l2 (BAI1-associated protein 2-like 2) [SID315477484] — Tnf reporter robust z-score: -0.56; fewer than 50 cells in well: enough cells in well; activity call: inactive
